Data: the supplement of paper PMC8104966
Some of the results follow. This data set is noisy: repeats of one test often differ as much as different tests do.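 U2OS cells expressing ACE2 were combined with U2OS cells expressing full-length spike, and imaging quantified fusion as the fraction of nuclei displaying both cell types' fluorescent markers. Non-toxic compounds with a fusion z-score under -3, i.e., over three standard deviations below the plate's DMSO wells, are called inhibitory hits.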

Each compound was assayed on U2OS ACE2 x SARS-CoV-2 spike co-culture (assay: cell-cell fusion (fraction fused) z-score vs plate DMSO control; higher = more fusion). Conditions: 30 µM; 5 h; toxicity class: non-toxic, passed QC.

SMILES	cell-cell fusion (z-score)
CO[C@H]1/C=C/O[C@@]2(C)Oc3c(C)c(O)c4c(O)c(c(C=NN5CCN(C)CC5)c(O)c4c3C2=O)NC(=O)/C(C)=C\C=C\C(C)[C@H](O)[C@@H](C)[C@@H](O)[C@@H](C)[C@@H](OC(C)=O)[C@@H]1C (stereo not given in full)	inactive: 3.88
O=C(O[C@@H]1Cc2c(O)cc(O)cc2O[C@@H]1c1cc(O)c(=O)c2c(O)c(O)cc([C@H]3Oc4cc(O)cc(O)c4C[C@H]3OC(=O)c3cc(O)c(O)c(O)c3)c2c1)c1cc(O)c(O)c(O)c1	inactive: 1.57
CCC(C)(C)O	inactive: 0.722
C#CCN[C@@H]1CCc2ccccc21.CS(=O)(=O)O [Rasagiline Mesylate]	inactive: 1.24
CC(C)=O.COC(=O)N[C@H](C(=O)N1CC2(CC2)C[C@H]1c1ncc(-c2ccc3c(c2)C(F)(F)c2cc(-c4ccc5nc([C@@H]6[C@H]7CC[C@H](C7)N6C(=O)[C@@H](NC(=O)OC)C(C)C)[nH]c5c4)ccc2-3)[nH]1)C(C)C [Ledipasvir acetone]	inactive: 1.08
[Na+].[Na+].[O-]c1c(Cl)cc(Cl)cc1Sc1cc(Cl)cc(Cl)c1[O-]	inactive: -0.229
O=C1NC(=O)/C(=C/c2ccc3nccc(-c4ccncc4)c3c2)S1	inactive: -0.0606
C[C@H]1C[C@H]2[C@@H]3CCC4=CC(=O)C=C[C@]4(C)[C@H]3C(=O)C[C@]2(C)[C@@]1(O)C(=O)CO [Meprednisone]	inactive: 2.47
CC(C)[N+](C)(CCC(C(N)=O)(c1ccccc1)c1ccccc1)C(C)C.[I-] [Isopropamide Iodide]	inactive: 0.637
CC(C)(C)c1cc(/C=C(\C#N)C(N)=S)cc(C(C)(C)C)c1O [Tyrphostin AG 879]	inactive: 0.469
Cc1onc(-c2ccccc2)c1C(=O)NC1C(=O)N2[C@@H]1SC(C)(C)[C@@H]2C(=O)[O-].[Na+] (stereo not given in full)	inactive: 0.651
COc1ccc(C(=O)CCC(=O)O)c2ccccc12	inactive: 1.89
Cc1ccc(-c2cc(C(F)(F)F)nn2-c2ccc(S(N)(=O)=O)cc2)cc1 [Celecoxib]	inactive: 0.693
CCCCOc1ccc(CC(=O)NO)cc1	inactive: -1.36
CCCCC(O)c1ccccc1 (stereo not given)	inactive: 3.35
COc1c(N2CCNC(C)C2)c(F)cc2c(=O)c(C(=O)O)cn(C3CC3)c12.NCCO (stereo not given)	inactive: 2.47
O=C(NC(Cc1cc(=O)[nH]c2ccccc12)C(=O)O)c1ccc(Cl)cc1 (stereo not given)	inactive: 2.52
S=c1nc[nH]c2nc[nH]c12 [Mercaptopurine]	inactive: 2.85
Cc1cnc(C(=O)O)c[n+]1[O-]	inactive: 1.04
CC(C)=CCOc1c2occc2cc2ccc(=O)oc12 [Imperatorin]	inactive: 2.07

SMILES	cell-cell fusion (z-score)
O.O.O.[Cl-].CN(C)c1ccc2nc3cc\c(cc3sc2c1)=[N+](/C)C [Methylene Blue trihydrate]	inactive: -2.61
COc1cc(O)c(C(C)=O)c(OC)c1	inactive: 1.89
Cc1cc2c(s1)Nc1ccccc1N=C2N1CCN(C)CC1 [Olanzapine]	inactive: 3.08
Nn1nnc2ccccc21 [1-Aminobenzotriazole]	inactive: 1.69
CCN(C)C(=O)Oc1cccc([C@H](C)N(C)C)c1.O=C(O)[C@H](O)[C@@H](O)C(=O)O	inactive: -2.12
OCC(Br)(Br)Br	inactive: 3.46
COc1ccccc1N1CCN(CCN2C(=O)CC3(CCCC3)CC2=O)CC1.Cl.Cl [BMY 7378 dihydrochloride]	inactive: 2.48
O=C(O)Cn1c(C(=O)Nc2nc(-c3ccccc3Cl)cs2)cc2ccccc21	inactive: 2.92
O=C1NC(=O)C(=O)C(=O)N1	inactive: 1.76
CCCC[C@@H](CC)COC(=O)C(C#N)=C(c1ccccc1)c1ccccc1	inactive: 0.896
CCc1ccc2c(-c3cccc(Cl)c3)nc(=O)n(CC)c2n1	inactive: 1.67
COc1cc2c(cc1Cc1cccc(Cl)c1F)c(=O)c(C(=O)O)cn2[C@H](CO)C(C)C [Elvitegravir]	active: -4.55
Cc1cc(NC2CCCCC2)nc(-n2nc(C)cc2C)n1	inactive: 2.03
COc1ccc(CC(C)(C)NC[C@H](O)c2cc(O)cc3c2OCC(=O)N3)cc1 [Olodaterol]	inactive: 1.02
O=C(/C=C/c1cccc(S(=O)(=O)Nc2ccccc2)c1)NO [Belinostat]	inactive: 1.12
O=C(O[C@@H]1Cc2c(O)cc(O)cc2O[C@@H]1c1cc(O)c(O)c(O)c1)c1cc(O)c(O)c(O)c1	inactive: 2.82
CN1CCN(C2=Nc3ccccc3Oc3ccc(Cl)cc32)CC1.O=C(O)CCC(=O)O	inactive: 2.1
CN1CCN(C2=Nc3ccccc3Oc3ccc(Cl)cc32)CC1.O=C(O)CCC(=O)O [Loxapine succinate]	inactive: 1.71
Oc1ccc(/C=C/c2cc(O)cc(O)c2)cc1 [Resveratrol]	inactive: 2.03
Oc1ccc(/C=C/c2cc(O)cc(O)c2)cc1	inactive: 2.25

Look-ups from the list:
Value for O.O.O.[Cl-].CN(C)c1ccc2nc3cc\c(cc3sc2c1)=[N+](/C)C [Methylene Blue trihydrate] under cell-cell fusion (z-score): inactive: -2.61
Value for COc1cc2c(cc1Cc1cccc(Cl)c1F)c(=O)c(C(=O)O)cn2[C@H](CO)C(C)C [Elvitegravir] under cell-cell fusion (z-score): active: -4.55
Value for Oc1ccc(/C=C/c2cc(O)cc(O)c2)cc1 under cell-cell fusion (z-score): inactive: 2.25
